# PubChem BioAssay AID602196 – INSERM – 2012
# Test: 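Modifiers of cisplatin sensitivity in A549 cells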
# Cell system: human A549 lung cancer cells
# Reagent: siRNA pair against human genes
# Duration: 48 h transfection before cisplatin; time from cisplatin to read-out not stated
# Treatment: cisplatin at a dose killing half of control-siRNA cells; exact dose and duration not given
# Detection: 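Cisplatin cell death as a shift from the 50% death seen with control siRNA; siRNAs toxic or growth-blocking alone scored 0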
# Reading the numbers: two-siRNA summed score (-2 to +2): higher = both siRNAs protect from cisplatin killing; -2 means both sensitise; mean protection from cisplatin (shift in death) and protection from cisplatin (shift in death), siRNA C and protection from cisplatin (shift in death), siRNA D: higher = protection from cisplatin killing
# Call rule: 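siRNAs harmful alone (LDH or WST-1) get 0; others get +1 for less and -1 for more cisplatin killing; genes are active when the two siRNAs give the same sign, summing to ±2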
# Meaning of the calls: active = both siRNAs shift cisplatin killing the same way; inactive = no consistent shift, or siRNA harmful alone
# Here is a random part of about 23,000 reagents. 455 of them (2%) count as active. 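Active includes both protection and sensitisation; some change values fall well beyond the stated -50 to +50 range.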 Reagent sequences are not shown. Not stated in the record: the amount of reagent.
gene,PubChem SID,two-siRNA summed score (-2 to +2),mean protection from cisplatin (shift in death) (%),"protection from cisplatin (shift in death), siRNA C (%)","protection from cisplatin (shift in death), siRNA D (%)",call
LOC161823,SID131518964,1,-0.8,26.3,-27.9,inactive
LRRIQ1,SID131508612,0,1.3,10.1,-7.6,inactive
MPND,SID131508296,0,0.9,-7.1,8.9,inactive
TG,SID131508030,0,0.5,4.2,-3.1,inactive
GPR179,SID131502775,-1,9.8,-10.9,30.5,inactive
LOC390421,SID131516384,0,10.8,8.3,13.3,inactive
KLHL32,SID131509000,0,1.7,-4,7.4,inactive
GOLGB1,SID131501428,-1,-9.8,-22.7,3,inactive
IRF9,SID131505163,0,-3.6,8.8,-16,inactive
NELL2,SID131504476,0,-5.3,-12.6,2.1,inactive
KIFAP3,SID131508130,0,0.7,-12.3,13.6,inactive
LOC392758,SID131505348,0,-3.3,-6,-0.6,inactive
RAP1B,SID131514448,0,7.8,3.9,11.7,inactive
PDIA6,SID131520134,1,8.8,6.1,11.5,inactive
L3MBTL2,SID131505769,0,-2.6,1.1,-6.3,inactive
SPATS2L,SID131512401,0,5.4,-6.1,17,inactive
CD63,SID131508333,0,0.9,-3.9,5.7,inactive
ZFC3H1,SID131516367,0,10.7,12.5,9,inactive
DHTKD1,SID131519638,1,6.8,12.7,0.8,inactive
LOC439955,SID131507940,0,0.4,-10.6,11.5,inactive
GSTZ1,SID131500603,-1,-19.8,-26.7,-12.9,inactive
IDUA,SID131503745,0,-8,-18,1.9,inactive
TMBIM4,SID131504220,0,-6.1,-20.8,8.7,inactive

Entries above whose gene name starts with I or i:
gene,PubChem SID,two-siRNA summed score (-2 to +2),mean protection from cisplatin (shift in death) (%),"protection from cisplatin (shift in death), siRNA C (%)","protection from cisplatin (shift in death), siRNA D (%)",call
IRF9,SID131505163,0,-3.6,8.8,-16,inactive
IDUA,SID131503745,0,-8,-18,1.9,inactive
